Measured values as given in patent EP4810055A1, “PEPTIDE FOR TREATING DEMYELINATING DISEASES AND USE THEREOF” (Kine Sciences Co., Ltd., priority 2023, dated 2026).
At least one peptide structure holds a part that was inferred or is arguable (an end, a ring closure or a residue). Where no end group is shown, it is not given here.

How the values were obtained:
[1] = test system: acquired peripheral nerve injury animal model; assay: Histopathological examination of nerve tissues (toluidine blue, TEM) in acquired peripheral nerve injury animal model; type: in vivo, C57BL/6 mice; settings: for myelinated axons / unmyelinated fibers: vs acquired peripheral nerve injury group
[2] = test system: chronic inflammatory demyelinating polyneuropathy (CIDP) animal model; assay: TEM observation of demyelination in peripheral nerve tissues of the CIDP animal model; type: in vivo, Lewis rats; settings: KINE-101 50 mg/kg I.V.; hind limb peripheral nerve tissue after completion of the experiment; Fig. 2
CIDP animal model [3] = assay: Nerve conduction studies (NCS) in CIDP animal model induced with s-palm P0; type: in vivo, Lewis rats; settings: all KINE-101-treated groups, vs negative control group
[4] = test system: acquired peripheral nerve injury animal model; assay: Nerve conduction studies in acquired peripheral nerve injury animal model; type: in vivo, C57BL/6 mice
Treg cells = assay: Flow cytometry of Treg cell proportion and activation in lymph nodes at the nerve injury site; type: in vivo, C57BL/6 mice; settings: lymph nodes at the peripheral nerve injury site, Fig. 13
[5] = test system: acquired peripheral nerve injury animal model; assay: Rotarod test in acquired peripheral nerve injury animal model; type: in vivo, C57BL/6 mice; settings: all KINE-101-treated groups (10, 50, 100 mg/kg); weeks 3 and 6; vs Injury Ctr; Fig. 11
CIDP animal model [6] = assay: Clinical score in long-persisting CIDP animal model induced with s-palm P0, comparison with IVIg; type: in vivo, Lewis rats; settings: all KINE-101-treated groups (6.25 mg/kg to 37.5 mg/kg I.V. three times per week); day 15 after disease induction; vs negative control group; Fig. 3
CIDP animal model [7] = assay: Body weight change in CIDP animal model induced with s-palm P0; type: in vivo, Lewis rats; settings: Fig. 4
[8] = test system: chronic inflammatory demyelinating polyneuropathy (CIDP) animal model; assay: Clinical score in CIDP animal model induced with P0 (180-199); type: in vivo, Lewis rats; settings: all KINE-101-treated groups (1, 5, 25, 50 mg/kg I.V. three times per week); vs CIDP-induced group with persistent symptoms after day 14; Fig. 1
[9] = KINE-101-treated groups, six weeks after the start of administration, vs Injury Ctr
[10] = after completion of the experiment (day 15), Fig. 5

Question: How did the myelinated axons ([1]; KINE-101 50 mg/kg) turn out when PSPPSPPSP [KINE-101, PSPPSPPSP] was run?
Answer: The myelinated axons was “marked increase”.

Question: And the unmyelinated fibers ([1]; KINE-101 50 mg/kg)?
Answer: Its unmyelinated fibers is “decrease”.

Question: And the myelinated axons ([1]; KINE-101 100 mg/kg)?
Answer: The myelinated axons was “marked increase”.

Question: And the unmyelinated fibers ([1]; KINE-101 100 mg/kg)?
Answer: Its unmyelinated fibers is “decrease”.

Question: And the “number of large myelinated fibers” value [1, 9]?
Answer: Its value is “increase”.

Question: And the “number of small unmyelinated fibers” value [1, 9]?
Answer: The value was “decrease”.

Question: What about the myelination ([1]; KINE-101-treated groups, six weeks after the start of administration, vs Injury Ctr, Figs. 12a and 12b) of the same sequence?
Answer: The myelination was “improved myelination”.

Question: What about the “demyelination (degree of myelin loss, TEM)” value [2] of the same sequence?
Answer: The value was “demyelination was suppressed similarly to that observed in the normal group”.

Question: And the “sensory nerve action potential (SNAP)” value (CIDP animal model [3]; Fig. 6)?
Answer: The value was “higher”.

Question: What about the “sensory nerve conduction velocity (SNCV)” value (CIDP animal model [3]; Fig. 6) of the same sequence?
Answer: Its value is “higher”.

Question: What about the “compound muscle action potential (CMAP)” value (CIDP animal model [3]; [10]) of the same sequence?
Answer: The value was “higher”.

Question: And the “motor nerve conduction velocity (MNCV)” value (CIDP animal model [3]; [10])?
Answer: The value was “higher”.

Question: And the SNCV ([4]; KINE-101 10 mg/kg I.V. three times per week for four weeks, week 3, p = 0.000 vs injury group (21.1 ± 1.2 m/s))?
Answer: The SNCV was 27.7 ± 2.8 m/s.

Question: And the CMAP ([4]; KINE-101 10 mg/kg I.V. three times per week for four weeks, week 3, p = 0.044 vs injury group)?
Answer: The CMAP was 11.0 ± 2.3 mV.

Question: What about the SNCV ([4]; KINE-101 50 mg/kg I.V. three times per week for four weeks, week 3, p = 0.000 vs injury group (21.1 ± 1.2 m/s)) of the same sequence?
Answer: Its SNCV is 27.6 ± 2.2 m/s.

Question: And the MNCV ([4]; KINE-101 50 mg/kg I.V. three times per week for four weeks, week 3, p = 0.030 vs injury group (36.3 ± 7.2 m/s))?
Answer: Its MNCV is 46.7 ± 7.4 m/s.

Question: What about the CMAP ([4]; KINE-101 50 mg/kg I.V. three times per week for four weeks, week 3, p = 0.039 vs injury group) of the same sequence?
Answer: The CMAP was 12.3 ± 3.5 mV.

Question: What about the SNAP ([4]; KINE-101 50 mg/kg I.V. three times per week for four weeks, week 3, p = 0.050 vs injury group (7.9 ± 1.1 µV)) of the same sequence?
Answer: The SNAP was 11.2 ± 3.1 µV.

Question: What about the CMAP ([4]; KINE-101 50 mg/kg I.V. three times per week for four weeks, week 6, p = 0.007 vs injury group) of the same sequence?
Answer: The CMAP was 32.9 ± 4.0 mV.

Question: What about the MNCV ([4]; KINE-101 50 mg/kg I.V. three times per week for four weeks, week 6, p = 0.008 vs injury group) of the same sequence?
Answer: The MNCV was 63.9 ± 7.6 m/s.

Question: And the SNCV ([4]; KINE-101 50 mg/kg I.V. three times per week for four weeks, week 6, p = 0.038 vs injury group (23.4 ± 3.6 m/s))?
Answer: Its SNCV is 27.9 ± 3.1 m/s.

Question: What about the SNAP ([4]; KINE-101 50 mg/kg I.V. three times per week for four weeks, week 6, p = 0.046 vs injury group (8.3 ± 3.5 µV)) of the same sequence?
Answer: The SNAP was 12.3 ± 2.9 µV.

Question: What about the SNCV ([4]; KINE-101 100 mg/kg I.V. three times per week for four weeks, week 3, p = 0.001 vs injury group (21.1 ± 1.2 m/s)) of the same sequence?
Answer: The SNCV was 28.6 ± 3.7 m/s.

Question: What about the MNCV ([4]; KINE-101 100 mg/kg I.V. three times per week for four weeks, week 6, p = 0.013 vs injury group) of the same sequence?
Answer: The MNCV was 59.0 ± 4.5 m/s.

Question: And the MNCV ([4]; KINE-101-treated groups (10, 50, 100 mg/kg), week 6, Fig. 7)?
Answer: The MNCV was “increased”.

Question: And the CMAP ([4]; KINE-101-treated groups (10, 50, 100 mg/kg), weeks 3 and 6, vs injury group, Fig. 8)?
Answer: The CMAP was “increased”.

Question: What about the SNAP ([4]; KINE-101-treated groups (10, 50, 100 mg/kg), weeks 3 and 6, vs injury group, Fig. 10) of the same sequence?
Answer: The SNAP was “increased”.

Question: And the “CTLA4 expression in Treg cells” value (Treg cells; KINE-101 50 mg/kg)?
Answer: The value was “increased to a statistically significant level”.

Question: And the “proportion of Treg cells among CD4 T cells” value (Treg cells; KINE-101 50 mg/kg)?
Answer: The value was “increased to a statistically significant level”.

Question: And the “CTLA4 expression in Treg cells” value (Treg cells; KINE-101-treated groups)?
Answer: The value was “increased”.

Question: What about the “proportion of Treg cells among CD4 T cells” value (Treg cells; KINE-101-treated groups, six weeks after the start of administration) of the same sequence?
Answer: The value was “increased”.

Question: And the “muscle strength and balance (rotarod, time on the rotating rod)” value [5]?
Answer: The value was “improved muscle strength and balance”.

Question: What about the clinical score (CIDP animal model [6]) of the same sequence?
Answer: Its clinical score is “lower clinical scores”.

Question: What about the body weight gain (CIDP animal model [7]; KINE-101-treated groups (6.25-37.5 mg/kg I.V.), vs negative control group) of the same sequence?
Answer: Its body weight gain is “greater body weight gain compared with the negative control group”.

Question: What about the “body weight relative to before disease induction (Day 0)” value (CIDP animal model [7]; KINE-101-treated groups, day 15 after disease induction) of the same sequence?
Answer: Its value is “significantly higher body weight than that before disease induction”.

Question: And the clinical score [8]?
Answer: Its clinical score is “alleviation of symptoms after day 15”.
